Data: the supplement of paper PMC10849652
The list shows a part of the results.

Sequences of proteins named here, by UniProt entry; tags and fusion partners are left off. A change or cut given only in a name is not applied to a line headed by its entry.
UniProt Q8TBE0: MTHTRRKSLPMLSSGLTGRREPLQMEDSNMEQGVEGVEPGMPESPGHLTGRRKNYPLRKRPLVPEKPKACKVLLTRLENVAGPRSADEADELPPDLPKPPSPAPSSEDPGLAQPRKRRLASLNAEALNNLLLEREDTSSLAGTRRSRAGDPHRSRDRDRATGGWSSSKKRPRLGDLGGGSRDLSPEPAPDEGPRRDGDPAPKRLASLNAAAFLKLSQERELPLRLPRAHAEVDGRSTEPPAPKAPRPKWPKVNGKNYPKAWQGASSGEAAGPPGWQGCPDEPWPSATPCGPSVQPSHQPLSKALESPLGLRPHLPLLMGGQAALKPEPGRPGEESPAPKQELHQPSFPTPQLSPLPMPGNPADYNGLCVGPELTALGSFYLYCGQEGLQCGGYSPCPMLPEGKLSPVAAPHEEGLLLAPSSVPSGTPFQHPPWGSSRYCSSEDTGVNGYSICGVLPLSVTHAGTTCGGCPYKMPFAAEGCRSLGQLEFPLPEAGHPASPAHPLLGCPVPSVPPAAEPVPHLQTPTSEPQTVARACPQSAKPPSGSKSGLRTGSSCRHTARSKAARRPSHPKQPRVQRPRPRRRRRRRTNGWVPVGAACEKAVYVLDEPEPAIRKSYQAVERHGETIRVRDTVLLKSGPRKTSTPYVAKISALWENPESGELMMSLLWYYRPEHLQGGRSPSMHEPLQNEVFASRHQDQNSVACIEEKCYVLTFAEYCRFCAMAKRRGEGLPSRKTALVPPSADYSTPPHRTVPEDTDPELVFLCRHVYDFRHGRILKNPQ
UniProt O43521, whole entry, looked up: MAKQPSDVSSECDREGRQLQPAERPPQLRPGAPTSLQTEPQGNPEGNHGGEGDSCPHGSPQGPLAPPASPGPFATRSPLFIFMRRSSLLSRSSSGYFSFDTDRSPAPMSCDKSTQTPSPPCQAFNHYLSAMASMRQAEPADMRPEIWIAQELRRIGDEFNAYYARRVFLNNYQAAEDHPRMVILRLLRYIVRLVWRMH
UniProt Q9UIG0: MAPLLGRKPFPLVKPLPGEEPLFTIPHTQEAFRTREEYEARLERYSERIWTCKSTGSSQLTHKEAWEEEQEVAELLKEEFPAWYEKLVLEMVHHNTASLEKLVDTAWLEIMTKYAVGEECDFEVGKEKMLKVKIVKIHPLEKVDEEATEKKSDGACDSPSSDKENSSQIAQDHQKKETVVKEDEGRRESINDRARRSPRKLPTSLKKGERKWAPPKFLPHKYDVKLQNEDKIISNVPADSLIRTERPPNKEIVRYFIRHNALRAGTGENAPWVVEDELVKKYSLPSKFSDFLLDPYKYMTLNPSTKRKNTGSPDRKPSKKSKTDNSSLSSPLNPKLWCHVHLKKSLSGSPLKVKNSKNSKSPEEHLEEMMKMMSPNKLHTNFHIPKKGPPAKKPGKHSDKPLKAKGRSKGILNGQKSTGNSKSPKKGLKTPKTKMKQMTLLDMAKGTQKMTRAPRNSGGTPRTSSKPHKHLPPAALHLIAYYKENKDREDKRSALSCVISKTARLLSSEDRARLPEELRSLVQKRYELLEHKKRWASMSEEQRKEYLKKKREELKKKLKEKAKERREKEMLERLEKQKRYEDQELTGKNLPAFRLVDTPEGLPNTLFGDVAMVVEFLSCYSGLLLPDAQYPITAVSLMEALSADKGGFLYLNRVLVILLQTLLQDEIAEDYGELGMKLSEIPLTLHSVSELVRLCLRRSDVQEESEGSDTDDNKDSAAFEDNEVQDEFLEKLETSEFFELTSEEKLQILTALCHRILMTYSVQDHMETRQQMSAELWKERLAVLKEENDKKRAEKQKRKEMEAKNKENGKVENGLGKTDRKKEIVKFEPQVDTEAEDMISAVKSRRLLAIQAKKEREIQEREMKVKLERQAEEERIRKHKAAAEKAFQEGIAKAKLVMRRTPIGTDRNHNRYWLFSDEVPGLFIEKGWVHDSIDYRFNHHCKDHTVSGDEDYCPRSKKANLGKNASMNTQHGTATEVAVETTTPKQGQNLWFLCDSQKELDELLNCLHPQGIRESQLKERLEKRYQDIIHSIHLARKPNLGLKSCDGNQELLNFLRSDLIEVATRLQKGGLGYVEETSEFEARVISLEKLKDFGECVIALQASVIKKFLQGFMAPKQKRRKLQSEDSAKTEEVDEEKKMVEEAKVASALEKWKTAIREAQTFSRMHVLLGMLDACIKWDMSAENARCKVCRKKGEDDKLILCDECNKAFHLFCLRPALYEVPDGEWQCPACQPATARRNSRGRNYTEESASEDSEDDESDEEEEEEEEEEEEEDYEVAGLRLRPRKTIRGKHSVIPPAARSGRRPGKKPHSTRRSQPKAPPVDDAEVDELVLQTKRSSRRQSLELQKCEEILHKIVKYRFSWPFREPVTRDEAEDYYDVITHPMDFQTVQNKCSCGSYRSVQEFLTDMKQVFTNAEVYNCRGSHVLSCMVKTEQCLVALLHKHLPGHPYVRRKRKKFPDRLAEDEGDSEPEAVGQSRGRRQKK
UniProt Q9H6U6: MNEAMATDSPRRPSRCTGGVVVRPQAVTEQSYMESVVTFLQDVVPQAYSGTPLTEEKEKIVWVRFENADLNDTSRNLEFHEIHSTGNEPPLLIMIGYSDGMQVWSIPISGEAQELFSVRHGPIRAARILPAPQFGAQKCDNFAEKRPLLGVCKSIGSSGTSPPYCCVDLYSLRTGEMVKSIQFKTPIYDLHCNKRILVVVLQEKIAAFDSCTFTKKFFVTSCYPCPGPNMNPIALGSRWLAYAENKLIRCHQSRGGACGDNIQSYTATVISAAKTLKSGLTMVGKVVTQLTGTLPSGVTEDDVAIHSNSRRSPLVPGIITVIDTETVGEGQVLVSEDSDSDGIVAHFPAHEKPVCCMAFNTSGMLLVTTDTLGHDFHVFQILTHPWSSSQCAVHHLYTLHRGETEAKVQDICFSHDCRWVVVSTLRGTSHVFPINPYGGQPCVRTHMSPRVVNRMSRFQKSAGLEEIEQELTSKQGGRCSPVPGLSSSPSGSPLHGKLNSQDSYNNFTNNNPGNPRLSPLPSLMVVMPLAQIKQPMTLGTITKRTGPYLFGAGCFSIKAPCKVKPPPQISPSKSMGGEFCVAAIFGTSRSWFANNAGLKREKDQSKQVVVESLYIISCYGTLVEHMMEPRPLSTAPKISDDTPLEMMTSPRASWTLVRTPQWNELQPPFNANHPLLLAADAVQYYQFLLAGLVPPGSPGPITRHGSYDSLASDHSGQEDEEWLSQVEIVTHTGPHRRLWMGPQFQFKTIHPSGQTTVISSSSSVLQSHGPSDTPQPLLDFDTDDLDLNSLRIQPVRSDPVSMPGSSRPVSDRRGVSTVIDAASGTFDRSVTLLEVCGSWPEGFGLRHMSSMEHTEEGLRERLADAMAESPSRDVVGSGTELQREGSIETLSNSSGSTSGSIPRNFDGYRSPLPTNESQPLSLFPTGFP
UniProt O00512: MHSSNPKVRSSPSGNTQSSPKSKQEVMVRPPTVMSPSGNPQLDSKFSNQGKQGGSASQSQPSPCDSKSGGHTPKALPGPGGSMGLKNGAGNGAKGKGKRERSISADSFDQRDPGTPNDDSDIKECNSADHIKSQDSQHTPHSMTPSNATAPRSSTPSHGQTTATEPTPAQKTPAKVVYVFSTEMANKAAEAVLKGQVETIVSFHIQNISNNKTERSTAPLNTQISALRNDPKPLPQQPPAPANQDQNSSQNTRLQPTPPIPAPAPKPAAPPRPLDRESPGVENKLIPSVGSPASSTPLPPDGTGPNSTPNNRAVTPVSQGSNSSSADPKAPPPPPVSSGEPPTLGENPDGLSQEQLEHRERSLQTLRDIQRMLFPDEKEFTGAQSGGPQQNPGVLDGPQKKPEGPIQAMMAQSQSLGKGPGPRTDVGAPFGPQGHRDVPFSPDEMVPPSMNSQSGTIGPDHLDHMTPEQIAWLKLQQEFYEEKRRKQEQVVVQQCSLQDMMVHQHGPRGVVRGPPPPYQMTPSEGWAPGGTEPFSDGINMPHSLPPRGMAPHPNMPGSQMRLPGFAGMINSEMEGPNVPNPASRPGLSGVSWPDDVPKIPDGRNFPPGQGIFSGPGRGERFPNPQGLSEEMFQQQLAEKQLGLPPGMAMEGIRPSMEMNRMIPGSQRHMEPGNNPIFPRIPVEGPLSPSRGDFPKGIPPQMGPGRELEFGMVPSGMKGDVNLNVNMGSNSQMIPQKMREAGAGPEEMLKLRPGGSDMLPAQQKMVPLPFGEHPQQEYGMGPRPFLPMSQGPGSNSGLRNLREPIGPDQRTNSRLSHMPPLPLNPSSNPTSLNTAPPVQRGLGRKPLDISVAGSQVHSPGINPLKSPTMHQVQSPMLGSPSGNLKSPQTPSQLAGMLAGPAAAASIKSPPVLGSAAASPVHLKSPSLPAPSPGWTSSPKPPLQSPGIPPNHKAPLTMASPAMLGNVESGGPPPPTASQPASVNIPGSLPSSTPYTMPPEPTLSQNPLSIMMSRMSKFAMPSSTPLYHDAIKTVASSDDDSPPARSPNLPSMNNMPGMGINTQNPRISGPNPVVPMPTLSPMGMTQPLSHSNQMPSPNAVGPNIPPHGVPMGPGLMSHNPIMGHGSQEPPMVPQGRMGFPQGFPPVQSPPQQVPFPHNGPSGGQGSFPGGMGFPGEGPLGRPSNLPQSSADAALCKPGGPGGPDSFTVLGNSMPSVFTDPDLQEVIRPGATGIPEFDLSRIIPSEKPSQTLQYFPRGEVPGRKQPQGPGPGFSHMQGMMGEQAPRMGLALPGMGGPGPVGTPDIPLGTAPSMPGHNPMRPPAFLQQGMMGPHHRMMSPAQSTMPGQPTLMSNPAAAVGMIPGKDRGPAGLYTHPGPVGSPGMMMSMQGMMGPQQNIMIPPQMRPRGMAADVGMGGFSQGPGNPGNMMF
UniProt Q8TDL5: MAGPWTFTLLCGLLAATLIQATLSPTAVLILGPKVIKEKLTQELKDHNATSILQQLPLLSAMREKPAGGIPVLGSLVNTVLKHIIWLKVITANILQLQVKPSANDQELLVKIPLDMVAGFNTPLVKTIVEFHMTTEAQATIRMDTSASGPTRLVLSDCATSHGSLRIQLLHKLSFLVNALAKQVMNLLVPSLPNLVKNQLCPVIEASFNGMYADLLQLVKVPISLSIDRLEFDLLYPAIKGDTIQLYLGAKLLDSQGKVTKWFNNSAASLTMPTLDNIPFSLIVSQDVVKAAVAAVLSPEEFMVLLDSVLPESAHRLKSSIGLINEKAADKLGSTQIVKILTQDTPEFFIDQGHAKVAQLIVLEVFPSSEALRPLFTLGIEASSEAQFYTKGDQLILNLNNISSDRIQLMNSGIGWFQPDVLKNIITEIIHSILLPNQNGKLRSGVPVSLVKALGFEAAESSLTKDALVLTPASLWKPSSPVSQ
UniProt Q9NYM9: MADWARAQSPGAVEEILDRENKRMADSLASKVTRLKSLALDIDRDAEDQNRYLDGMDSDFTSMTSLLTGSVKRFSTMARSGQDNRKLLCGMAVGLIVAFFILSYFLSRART
UniProt Q96GD4, whole entry, looked up: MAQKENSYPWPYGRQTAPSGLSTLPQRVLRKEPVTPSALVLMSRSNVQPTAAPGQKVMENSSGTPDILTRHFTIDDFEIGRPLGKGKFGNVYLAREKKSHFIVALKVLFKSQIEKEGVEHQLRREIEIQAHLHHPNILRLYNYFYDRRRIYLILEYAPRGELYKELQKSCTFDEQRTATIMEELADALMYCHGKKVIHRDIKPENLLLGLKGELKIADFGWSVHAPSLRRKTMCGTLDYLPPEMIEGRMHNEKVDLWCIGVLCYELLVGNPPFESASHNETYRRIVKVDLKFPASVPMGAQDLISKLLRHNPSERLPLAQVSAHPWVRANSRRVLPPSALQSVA
UniProt O60238, whole entry, looked up: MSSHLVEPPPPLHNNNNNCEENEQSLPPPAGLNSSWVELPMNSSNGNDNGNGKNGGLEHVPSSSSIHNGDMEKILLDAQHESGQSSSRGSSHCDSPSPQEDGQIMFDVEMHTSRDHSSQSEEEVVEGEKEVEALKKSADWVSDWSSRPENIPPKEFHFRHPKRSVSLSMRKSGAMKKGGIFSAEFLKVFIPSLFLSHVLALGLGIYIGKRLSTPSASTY
UniProt Q96FH0: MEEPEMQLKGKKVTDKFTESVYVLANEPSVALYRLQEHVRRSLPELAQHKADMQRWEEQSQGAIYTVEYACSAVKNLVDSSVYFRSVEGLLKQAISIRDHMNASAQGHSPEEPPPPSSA
UniProt O14977: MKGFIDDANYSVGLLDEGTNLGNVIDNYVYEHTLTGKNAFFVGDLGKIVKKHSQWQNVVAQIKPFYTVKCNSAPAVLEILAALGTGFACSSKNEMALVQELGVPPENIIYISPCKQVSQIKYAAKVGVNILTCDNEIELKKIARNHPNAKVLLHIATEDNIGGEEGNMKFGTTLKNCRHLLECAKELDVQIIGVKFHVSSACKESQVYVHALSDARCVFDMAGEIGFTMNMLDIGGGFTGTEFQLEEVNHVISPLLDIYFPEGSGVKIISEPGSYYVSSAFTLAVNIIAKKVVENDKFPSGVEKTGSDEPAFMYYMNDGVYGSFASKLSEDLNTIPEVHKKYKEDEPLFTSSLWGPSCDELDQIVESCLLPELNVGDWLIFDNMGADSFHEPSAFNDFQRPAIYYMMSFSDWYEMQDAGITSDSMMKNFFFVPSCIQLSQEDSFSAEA

What follows are targets tested with Cc1cccc(CC(=O)N2CCc3c2ccc(-c2cn(C)c4ncnc(N)c24)c3F)n1 (assay: log2 fold change, soluble protein after heating vs DMSO (PISA); higher = thermal stabilisation; K562 cells, 10 uM, 30 min; active = over 0.2 and 3.5 SD of the protein, either way, in both replicates (recomputed)).
How it was run: (§1)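 K562 cells (2×10^6 cells/mL) were treated with 10 μM compound for 30 min, and aliquots were heated for 3 min over 48°C-58°C. Pooled aliquots were extracted in PBS with 0.5% NP-40 at 4°C, and the supernatant after 21,000xg for 90 min was measured by TMTpro 16plex LC-MS/MS with channel sums equalised. Reported thermal stability, relative to control samples and from duplicates, is a log2 fold change.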

log2 fold change, inactive:
ATXN2 (UniProt F8W0B5) 0.029
BAHD1 (UniProt Q8TBE0) -0.079
BRMS1 (UniProt Q9HCU9) 0.029
BCL2L11 (UniProt O43521) -0.088
BAP18 isoform 3 (UniProt Q8IXM2) -0.182
BOD1 (UniProt Q96IK1) -0.099
BAZ1B (UniProt Q9UIG0) -0.112
BCAS3 isoform 8 (UniProt Q9H6U6) 0.027
ATRX (UniProt P46100) -0.147
BCL9 (UniProt O00512) -0.011
AXIN1 (UniProt O15169) 0.016

The targets below were run with Cc1cn(-c2cc(NC(=O)c3ccc(C)c(Nc4nccc(-c5cccnc5)n4)c3)cc(C(F)(F)F)c2)cn1 [nilotinib] in the same assay as above.
How it was run: as §1

log2 fold change, inactive:
ATXN2 (UniProt F8W0B5) 0.1
BAHD1 (UniProt Q8TBE0) 0.082
BPIFB1 (UniProt Q8TDL5) 1.77
BCL2L11 (UniProt O43521) 0.044
BET1L (UniProt Q9NYM9) 0.019
AURKB isoform 5 (UniProt Q96GD4) -0.106
BAZ1B (UniProt Q9UIG0) -0.029
BRAF, A0A2R8Y8E0 -0.419
BPTF (UniProt Q12830) 0.057
BNIP3L (UniProt O60238) -0.052

Each target was assayed with Cc1nc(Nc2n[nH]c3c2CN(C(=O)N[C@H](CN(C)C)c2ccccc2)C3(C)C)c2sccc2n1 in the same assay as above.
How it was run: as §1

log2 fold change, inactive:
ATXN2 (UniProt F8W0B5) 0.053
BAHD1 (UniProt Q8TBE0) -0.055
BPIFB1 (UniProt Q8TDL5) -0.168
BCL2L11 (UniProt O43521) -0.068
BET1L (UniProt Q9NYM9) 0.086
AURKB isoform 5 (UniProt Q96GD4) 0.859
BAZ1B (UniProt Q9UIG0) -0.16
BRAF, A0A2R8Y8E0 0.112
BPTF (UniProt Q12830) 0.076
BNIP3L (UniProt O60238) 0.011

The targets below were run with Cc1nc(Nc2ncc(C(=O)Nc3c(C)cccc3Cl)s2)cc(N2CCN(CCO)CC2)n1 [dasatinib] in the same assay as above.
How it was run: as §1

log2 fold change, inactive:
ATXN2 (UniProt F8W0B5) -0.059
BRMS1 (UniProt Q9HCU9) 0.035
BHMT (UniProt Q93088) 0.035
BCL7B (UniProt Q9BQE9) -0.079
BCL2L11 (UniProt O43521) 0.07
BET1L (UniProt Q9NYM9) 0
AURKB isoform 5 (UniProt Q96GD4) 0.331
AURKAIP1 (UniProt Q9NWT8) 0.033
BCAS3 isoform 8 (UniProt Q9H6U6) -0.225
AUNIP isoform 2 (UniProt Q9H7T9) -0.284
BPTF (UniProt Q12830) -0.112
BCL9 (UniProt O00512) 0.028
BNIP3L (UniProt O60238) 0.025

Each target was assayed with Cc1ncc(-c2ccnc(Nc3ccc(S(C)(=O)=O)cc3)n2)n1C(C)C in the same assay as above.
How it was run: as §1

log2 fold change, inactive:
ATXN2 (UniProt F8W0B5) 0.024
BAHD1 (UniProt Q8TBE0) -0.049
BPIFB1 (UniProt Q8TDL5) -0.411
BCL2L11 (UniProt O43521) 0.049
BET1L (UniProt Q9NYM9) -0.027
AURKB isoform 5 (UniProt Q96GD4) 0.371
BAZ1B (UniProt Q9UIG0) -0.122
BRAF, A0A2R8Y8E0 -0.236
BPTF (UniProt Q12830) 0.361
BNIP3L (UniProt O60238) -0.037

Each target was assayed with Cn1cc(-c2ccc3c(c2)CCN3C(=O)Cc2cccc(C(F)(F)F)c2)c2c(N)ncnc21 in the same assay as above.
How it was run: as §1

log2 fold change, inactive:
ATXN2 (UniProt F8W0B5) 0.201
BAIAP2 isoform 4 (UniProt Q9UQB8) -0.018
BCL7B (UniProt Q9BQE9) 0.115
BCL2L11 (UniProt O43521) 0.082
BET1L (UniProt Q9NYM9) 0.038
AURKAIP1 (UniProt Q9NWT8) -0.296
BAZ1B (UniProt Q9UIG0) 0.004
BLZF1 (UniProt Q9H2G9) -0.154
BCAS3 isoform 8 (UniProt Q9H6U6) 0.009
AUNIP isoform 2 (UniProt Q9H7T9) -0.006
ATRX (UniProt P46100) -0.187
BCL9 (UniProt O00512) -0.161
BNIP3L (UniProt O60238) 0.073

What follows are targets tested with Cn1cc(-c2ccc3nnc(C(F)(F)c4ccc5ncccc5c4)n3n2)cn1 in the same assay as above.
How it was run: as §1

log2 fold change, inactive:
ATXN2 (UniProt F8W0B5) 0.17
BCL2L11 (UniProt O43521) -0.22
BORCS8 (UniProt Q96FH0) -0.07
BRCA1 isoform 7 (UniProt P38398) 0.054
BET1L (UniProt Q9NYM9) 0.033
BOD1 (UniProt Q96IK1) 0.05
AURKAIP1 (UniProt Q9NWT8) -0.072
BRAF, A0A2R8Y8E0 0.052
AZIN1 (UniProt O14977) -0.018
BCL9 (UniProt O00512) 0.094
BNIP3L (UniProt O60238) 0.015
B3GALT6 (UniProt Q96L58) -0.054
